From the supplement of paper PMC6411743
± gives the standard deviation of the averaged measurements. The list shows a part of the results, in another mix than the full data. Small differences around the control level are noise.

The chains behind the UniProt entries cited, without tags or fusion partners. Where a name states a change or a piece, a line headed by the entry shows the natural chain unless it says otherwise.
UniProt O14929: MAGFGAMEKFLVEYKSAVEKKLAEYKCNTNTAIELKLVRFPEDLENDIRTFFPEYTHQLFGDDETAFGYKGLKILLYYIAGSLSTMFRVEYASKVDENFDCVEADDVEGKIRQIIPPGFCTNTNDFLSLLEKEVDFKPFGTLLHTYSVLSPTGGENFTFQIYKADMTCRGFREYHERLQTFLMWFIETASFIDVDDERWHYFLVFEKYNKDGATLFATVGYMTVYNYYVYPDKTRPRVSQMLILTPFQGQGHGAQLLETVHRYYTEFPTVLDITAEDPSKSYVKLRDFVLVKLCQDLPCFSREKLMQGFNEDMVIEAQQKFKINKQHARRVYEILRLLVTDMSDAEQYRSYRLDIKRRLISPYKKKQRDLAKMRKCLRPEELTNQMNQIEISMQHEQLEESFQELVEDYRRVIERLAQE
UniProt O60287: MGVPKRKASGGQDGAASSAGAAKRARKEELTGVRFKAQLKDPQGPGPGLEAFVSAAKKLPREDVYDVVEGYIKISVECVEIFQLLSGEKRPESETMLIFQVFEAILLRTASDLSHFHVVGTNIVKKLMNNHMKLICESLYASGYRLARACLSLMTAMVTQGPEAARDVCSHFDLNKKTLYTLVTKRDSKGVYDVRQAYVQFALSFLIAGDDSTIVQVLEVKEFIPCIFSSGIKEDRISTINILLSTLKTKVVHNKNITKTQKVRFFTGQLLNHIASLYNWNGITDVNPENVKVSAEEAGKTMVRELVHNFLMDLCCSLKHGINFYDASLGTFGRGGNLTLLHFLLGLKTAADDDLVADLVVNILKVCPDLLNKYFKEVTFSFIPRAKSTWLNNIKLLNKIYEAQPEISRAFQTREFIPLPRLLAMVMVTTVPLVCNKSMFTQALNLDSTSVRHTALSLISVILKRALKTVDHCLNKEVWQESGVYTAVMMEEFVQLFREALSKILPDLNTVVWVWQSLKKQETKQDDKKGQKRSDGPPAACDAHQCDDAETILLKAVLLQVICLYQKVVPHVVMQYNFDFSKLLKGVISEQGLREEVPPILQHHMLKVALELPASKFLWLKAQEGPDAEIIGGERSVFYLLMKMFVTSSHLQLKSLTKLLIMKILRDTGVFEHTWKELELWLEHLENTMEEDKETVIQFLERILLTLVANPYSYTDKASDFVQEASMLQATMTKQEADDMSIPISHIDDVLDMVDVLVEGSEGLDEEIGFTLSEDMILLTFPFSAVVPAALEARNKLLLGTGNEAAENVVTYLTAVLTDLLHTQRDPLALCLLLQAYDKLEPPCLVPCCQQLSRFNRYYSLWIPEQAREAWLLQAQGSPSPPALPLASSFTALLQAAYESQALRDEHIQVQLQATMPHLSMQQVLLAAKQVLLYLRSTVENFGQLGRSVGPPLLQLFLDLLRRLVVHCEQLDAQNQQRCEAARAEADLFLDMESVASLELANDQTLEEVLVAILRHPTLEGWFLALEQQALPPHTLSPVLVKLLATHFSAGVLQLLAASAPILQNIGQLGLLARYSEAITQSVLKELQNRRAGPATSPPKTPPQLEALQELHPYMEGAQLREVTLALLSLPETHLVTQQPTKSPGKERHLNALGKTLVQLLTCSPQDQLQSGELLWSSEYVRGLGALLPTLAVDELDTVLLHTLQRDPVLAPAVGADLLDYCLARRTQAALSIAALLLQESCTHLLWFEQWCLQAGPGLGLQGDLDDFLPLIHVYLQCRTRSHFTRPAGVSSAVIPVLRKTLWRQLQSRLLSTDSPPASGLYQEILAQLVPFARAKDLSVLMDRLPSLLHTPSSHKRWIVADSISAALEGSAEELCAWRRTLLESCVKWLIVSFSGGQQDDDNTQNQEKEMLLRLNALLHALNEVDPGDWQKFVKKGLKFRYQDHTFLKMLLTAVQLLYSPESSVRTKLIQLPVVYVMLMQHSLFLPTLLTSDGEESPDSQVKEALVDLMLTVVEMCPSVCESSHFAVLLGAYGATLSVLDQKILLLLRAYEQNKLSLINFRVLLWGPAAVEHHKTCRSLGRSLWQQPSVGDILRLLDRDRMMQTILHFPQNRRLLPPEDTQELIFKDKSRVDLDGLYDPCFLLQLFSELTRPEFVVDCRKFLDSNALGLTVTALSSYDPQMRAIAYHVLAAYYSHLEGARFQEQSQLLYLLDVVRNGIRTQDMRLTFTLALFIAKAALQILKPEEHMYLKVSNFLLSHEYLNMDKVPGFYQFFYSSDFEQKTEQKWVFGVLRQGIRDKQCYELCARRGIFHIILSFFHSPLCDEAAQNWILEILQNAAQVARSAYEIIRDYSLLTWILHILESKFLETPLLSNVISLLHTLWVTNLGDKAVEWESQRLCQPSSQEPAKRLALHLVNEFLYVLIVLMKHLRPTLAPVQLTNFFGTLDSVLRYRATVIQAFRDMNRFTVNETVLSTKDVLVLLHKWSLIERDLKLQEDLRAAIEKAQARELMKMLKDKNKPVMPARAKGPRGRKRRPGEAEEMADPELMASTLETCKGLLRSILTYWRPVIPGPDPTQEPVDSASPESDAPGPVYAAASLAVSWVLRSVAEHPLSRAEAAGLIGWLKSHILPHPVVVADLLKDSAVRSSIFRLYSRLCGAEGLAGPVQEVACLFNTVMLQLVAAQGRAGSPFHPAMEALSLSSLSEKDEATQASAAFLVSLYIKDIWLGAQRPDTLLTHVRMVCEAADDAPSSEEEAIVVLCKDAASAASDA
UniProt O15379: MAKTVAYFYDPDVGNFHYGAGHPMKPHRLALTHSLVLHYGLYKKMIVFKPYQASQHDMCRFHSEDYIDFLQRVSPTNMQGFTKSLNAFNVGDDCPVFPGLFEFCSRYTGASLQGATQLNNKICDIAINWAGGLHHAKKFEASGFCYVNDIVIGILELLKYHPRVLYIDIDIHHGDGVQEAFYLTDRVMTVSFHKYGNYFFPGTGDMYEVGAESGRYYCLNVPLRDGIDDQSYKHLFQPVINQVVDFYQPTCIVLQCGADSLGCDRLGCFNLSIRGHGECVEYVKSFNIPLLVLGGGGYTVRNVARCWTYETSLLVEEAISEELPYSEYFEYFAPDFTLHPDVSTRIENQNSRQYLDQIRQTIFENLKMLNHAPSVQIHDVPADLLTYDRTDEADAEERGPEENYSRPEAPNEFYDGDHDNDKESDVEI
UniProt O14776: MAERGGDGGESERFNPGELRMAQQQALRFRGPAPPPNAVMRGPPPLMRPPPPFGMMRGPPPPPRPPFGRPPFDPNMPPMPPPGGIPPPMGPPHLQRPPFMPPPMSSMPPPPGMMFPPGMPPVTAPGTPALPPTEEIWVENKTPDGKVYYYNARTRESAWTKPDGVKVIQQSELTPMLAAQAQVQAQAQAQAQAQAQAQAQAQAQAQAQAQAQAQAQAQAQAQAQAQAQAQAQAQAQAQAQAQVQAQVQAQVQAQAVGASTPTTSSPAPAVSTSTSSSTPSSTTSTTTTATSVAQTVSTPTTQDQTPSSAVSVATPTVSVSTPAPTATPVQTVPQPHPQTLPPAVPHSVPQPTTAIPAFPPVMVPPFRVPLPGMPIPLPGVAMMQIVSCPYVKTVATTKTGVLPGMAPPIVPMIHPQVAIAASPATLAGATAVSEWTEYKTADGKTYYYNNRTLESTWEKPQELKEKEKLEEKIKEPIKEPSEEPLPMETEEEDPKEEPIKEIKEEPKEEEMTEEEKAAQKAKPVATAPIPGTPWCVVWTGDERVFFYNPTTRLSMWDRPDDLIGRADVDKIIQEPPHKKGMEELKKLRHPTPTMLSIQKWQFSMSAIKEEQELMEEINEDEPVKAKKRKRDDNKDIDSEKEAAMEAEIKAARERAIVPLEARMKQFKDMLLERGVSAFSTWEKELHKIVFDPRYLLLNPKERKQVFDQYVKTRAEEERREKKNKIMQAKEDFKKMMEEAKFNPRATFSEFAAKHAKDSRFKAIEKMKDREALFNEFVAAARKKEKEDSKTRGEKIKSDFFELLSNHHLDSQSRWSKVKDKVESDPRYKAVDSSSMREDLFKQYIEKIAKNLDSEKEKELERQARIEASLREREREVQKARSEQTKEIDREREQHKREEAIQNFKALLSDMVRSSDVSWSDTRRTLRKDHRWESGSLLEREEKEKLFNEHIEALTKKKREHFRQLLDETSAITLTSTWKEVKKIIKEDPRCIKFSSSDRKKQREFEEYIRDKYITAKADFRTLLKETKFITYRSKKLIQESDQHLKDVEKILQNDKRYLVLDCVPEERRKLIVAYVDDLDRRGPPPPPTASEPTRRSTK
UniProt O00754: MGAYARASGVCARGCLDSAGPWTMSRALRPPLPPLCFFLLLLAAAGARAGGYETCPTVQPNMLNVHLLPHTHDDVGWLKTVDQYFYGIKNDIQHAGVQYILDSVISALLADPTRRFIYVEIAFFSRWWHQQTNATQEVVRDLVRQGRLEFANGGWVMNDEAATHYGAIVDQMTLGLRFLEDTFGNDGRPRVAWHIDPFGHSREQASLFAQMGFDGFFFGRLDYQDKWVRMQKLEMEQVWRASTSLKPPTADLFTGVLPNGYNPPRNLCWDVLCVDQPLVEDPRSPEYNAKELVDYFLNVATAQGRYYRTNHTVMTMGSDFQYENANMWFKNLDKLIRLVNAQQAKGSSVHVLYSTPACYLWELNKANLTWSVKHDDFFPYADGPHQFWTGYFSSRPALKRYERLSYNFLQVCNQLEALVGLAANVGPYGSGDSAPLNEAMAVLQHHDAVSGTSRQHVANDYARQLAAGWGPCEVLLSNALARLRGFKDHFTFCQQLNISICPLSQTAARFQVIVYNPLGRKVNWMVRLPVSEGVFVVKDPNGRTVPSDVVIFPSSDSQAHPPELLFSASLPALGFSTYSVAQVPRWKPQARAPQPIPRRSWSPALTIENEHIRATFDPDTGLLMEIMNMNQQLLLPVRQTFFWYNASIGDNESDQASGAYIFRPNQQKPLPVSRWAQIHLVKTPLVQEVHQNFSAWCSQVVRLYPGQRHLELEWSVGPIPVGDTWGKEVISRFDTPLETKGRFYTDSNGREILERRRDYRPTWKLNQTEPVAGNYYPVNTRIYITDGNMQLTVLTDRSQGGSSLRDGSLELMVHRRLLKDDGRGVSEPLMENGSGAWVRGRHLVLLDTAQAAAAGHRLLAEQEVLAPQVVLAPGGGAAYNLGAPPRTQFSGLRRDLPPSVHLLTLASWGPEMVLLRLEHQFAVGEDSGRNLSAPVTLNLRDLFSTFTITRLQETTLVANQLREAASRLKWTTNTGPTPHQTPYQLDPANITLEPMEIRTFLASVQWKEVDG
UniProt O14524: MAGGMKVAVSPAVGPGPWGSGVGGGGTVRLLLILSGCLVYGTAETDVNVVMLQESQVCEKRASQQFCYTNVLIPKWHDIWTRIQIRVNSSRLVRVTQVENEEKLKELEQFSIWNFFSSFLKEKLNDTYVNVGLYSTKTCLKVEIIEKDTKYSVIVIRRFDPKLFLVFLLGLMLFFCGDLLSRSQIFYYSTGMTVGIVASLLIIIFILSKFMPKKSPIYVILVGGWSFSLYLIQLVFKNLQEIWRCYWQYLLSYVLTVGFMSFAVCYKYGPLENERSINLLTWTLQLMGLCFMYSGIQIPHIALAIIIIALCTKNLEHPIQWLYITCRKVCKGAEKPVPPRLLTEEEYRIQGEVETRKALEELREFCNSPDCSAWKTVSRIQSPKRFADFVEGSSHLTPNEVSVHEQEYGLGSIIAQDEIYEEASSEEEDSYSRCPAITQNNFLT
UniProt O14966: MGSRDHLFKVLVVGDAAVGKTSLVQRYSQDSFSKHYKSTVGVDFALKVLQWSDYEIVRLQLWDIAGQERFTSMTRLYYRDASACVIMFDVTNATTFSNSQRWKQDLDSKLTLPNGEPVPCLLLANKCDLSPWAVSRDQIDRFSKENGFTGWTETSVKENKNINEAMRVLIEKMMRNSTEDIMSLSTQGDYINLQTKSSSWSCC
UniProt O00635: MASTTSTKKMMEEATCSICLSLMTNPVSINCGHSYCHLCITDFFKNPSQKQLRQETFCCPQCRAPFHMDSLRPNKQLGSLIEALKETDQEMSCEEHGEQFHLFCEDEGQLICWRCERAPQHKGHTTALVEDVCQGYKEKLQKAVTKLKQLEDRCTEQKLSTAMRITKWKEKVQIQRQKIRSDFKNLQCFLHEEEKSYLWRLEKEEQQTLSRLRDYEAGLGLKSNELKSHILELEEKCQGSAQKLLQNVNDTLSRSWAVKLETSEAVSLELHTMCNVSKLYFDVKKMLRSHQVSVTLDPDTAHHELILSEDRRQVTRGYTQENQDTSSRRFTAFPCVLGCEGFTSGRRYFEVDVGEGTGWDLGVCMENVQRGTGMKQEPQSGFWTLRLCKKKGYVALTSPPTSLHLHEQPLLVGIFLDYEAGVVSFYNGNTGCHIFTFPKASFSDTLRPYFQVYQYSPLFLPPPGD

Compound: Nc1ncnc2c1ncn2[C@@H]1O[C@H](COP(=O)(O)OP(=O)(O)OP(=O)(O)O)[C@@H](O)[C@H]1O [adenosine triphosphate]
Assay: NP40-soluble protein abundance relative to vehicle (solubility fold change) (ratio); higher = more soluble protein in presence of ATP
Outline: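 Eight concentrations, 0.1 to 10 mM, were tested on Jurkat crude lysate for 10 min at room temperature and then 3 min at 37 °C, in three independent experiments. The lysate was solubilised with 0.8% NP40 and benzonase, ultracentrifuged, and the supernatant TMT-labelled for LC-MS/MS. Each value is the fold change against the detergent-processed vehicle in its own replicate, from vsn-normalised intensities.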

Target	NP40-soluble protein abundance (concentration: 0.1mM)	NP40-soluble protein abundance (concentration: 0.5mM)	NP40-soluble protein abundance (concentration: 1mM)	NP40-soluble protein abundance (concentration: 2mM)	NP40-soluble protein abundance (concentration: 4mM)	NP40-soluble protein abundance (concentration: 6mM)	NP40-soluble protein abundance (concentration: 8mM)	NP40-soluble protein abundance (concentration: 10mM)
SETD1A (UniProt O15047)	0.963 ± 0.021	0.968 ± 0.063	0.962 ± 0.038	0.97 ± 0.018	0.979 ± 0.022	0.997 ± 0.044	0.969 ± 0.049	0.997 ± 0.046
HAT1 (UniProt O14929)	1.02 ± 0.11	1.02 ± 0.063	1.01 ± 0.16	0.995 ± 0.098	0.957 ± 0.08	0.895 ± 0.15	0.97 ± 0.09	0.955 ± 0.04
URB1 (UniProt O60287)	1.1 ± 0.013	1.15 ± 0.022	1.29 ± 0.067	1.41 ± 0.043	1.65 ± 0.057	1.7 ± 0.12	1.94 ± 0.12	2.15 ± 0.084
UniProt O15169 and related entries	1.06 ± 0.27	0.92 ± 0.092	1.05 ± 0.17	0.887 ± 0.14	0.982 ± 0.19	1.07 ± 0.18	1 ± 0.047	1.15 ± 0.21
UniProt O15379 and related entries	1.02 ± 0.023	1.05 ± 0.036	1 ± 0.019	0.9928 ± 0.0062	0.985 ± 0.04	0.994 ± 0.053	1.04 ± 0.044	1.03 ± 0.065
UniProt O43172-2|O43172	1.1 ± 0.031	1.14 ± 0.051						
UniProt O14776 and related entries	0.989 ± 0.029	1.01 ± 0.057	0.972 ± 0.011	0.9735 ± 0.0036	0.959 ± 0.024	1.03 ± 0.021	1.01 ± 0.024	1.02 ± 0.013
MAN2B1 (UniProt O00754)	0.972 ± 0.053	0.956 ± 0.033	0.94 ± 0.027	0.948 ± 0.017	0.957 ± 0.023	0.887 ± 0.057	0.917 ± 0.038	0.93 ± 0.018
UniProt O14524	0.85 ± 0.054	0.906 ± 0.039	0.824 ± 0.11	0.887 ± 0.1	0.841 ± 0.017	0.899 ± 0.066	0.872 ± 0.029	0.896 ± 0.036
UniProt O14966 and related entries	1.04 ± 0.022	1.03 ± 0.046	0.995 ± 0.072	1.01 ± 0.075	0.958 ± 0.099	1.03 ± 0.09	0.99 ± 0.1	1.01 ± 0.04
TRIM38 (UniProt O00635)	1.06 ± 0.039	1.04 ± 0.022	0.949 ± 0.053	1 ± 0.018	0.988 ± 0.041	0.955 ± 0.046	0.986 ± 0.034	0.993 ± 0.045

Full records as entered above. Values in the order: NP40-soluble protein abundance (concentration: 0.1mM)	NP40-soluble protein abundance (concentration: 0.5mM)	NP40-soluble protein abundance (concentration: 1mM)	NP40-soluble protein abundance (concentration: 2mM)	NP40-soluble protein abundance (concentration: 4mM)	NP40-soluble protein abundance (concentration: 6mM)	NP40-soluble protein abundance (concentration: 8mM)	NP40-soluble protein abundance (concentration: 10mM)
SETD1A (UniProt O15047) as listed: 0.963 ± 0.021	0.968 ± 0.063	0.962 ± 0.038	0.97 ± 0.018	0.979 ± 0.022	0.997 ± 0.044	0.969 ± 0.049	0.997 ± 0.046
MAN2B1 (UniProt O00754) as listed: 0.972 ± 0.053	0.956 ± 0.033	0.94 ± 0.027	0.948 ± 0.017	0.957 ± 0.023	0.887 ± 0.057	0.917 ± 0.038	0.93 ± 0.018
